Data taken from US20120034228A1.
Results are given in words; binding and its absence hold for the method and conditions named.

Target: 1-27 CD3-EpCAM comprising the swine 27 mer (cynomolgus)
Test: FACS on transfected 293-HEK cells

B1: E2M HLP (scFv)
scFv: EVQLLESGGGLVQPGGSLKLSCAASGFTFNGYAMNWVRQAPGKGLEWVARIRSKYNNYATYYADSVKERFTISRDDSKNTAYLQMNNLKTEDTAVYYCVRHRNFGNSYLSWFAYWGQGTLVTVSSGGGGSGGGGSGGGGSELVVTQEPSLTVSPGGTVTLTCRSSTGAVTSGYYPNWVQQKPGQAPRGLIGATDMRPSGTPARFSGSLLGGKAALTLSGVQPEDEAEYYCALWYSNRWVFGGGTKLTVL
binding: no binding
